{"source": "PubChem BioAssay AID1508600", "about": "(Functional Genomics Laboratory (NCATS/FGL), 2020)", "note": "Screen size: about 53,000 sequences; about 3,700 (7%) were called active.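 How the source made its calls: active means gene knockdowns whose robust z-score for IL-1 alpha signal is at least 2 or at most -2, so actives lie on both sides; inactive means the rest.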 Some of the results follow."}
{"assay": "Components of the Cytosolic LPS Sensing Pathway: Gene Identification via Genome-wide siRNA Screen;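 further: robust z of the log signal after scaling to non-targeting control siRNA wells of the plate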", "details": "RAW264.7 macrophages, IL-1a HTRF, actives lie on both sides, screened at 100 nM (by protocol), cells primed 5 h with Pam3CSK4 first", "method_in_brief": "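Three distinct siRNAs per gene were tested singly at 100 nM in RAW264.7 macrophages. Following Pam3CSK4 priming and 24 hour LipidA transfection, IL-1a secretion was read by HTRF.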"}
{"sequence": "GGGAAAUGUUUUCCAAAGATT against Tep1", "z-score": "inactive: 0.776"}
{"sequence": "GGAAGUUCUACACUCGUCUTT against Fzd2", "z-score": "inactive: -1.11"}
{"sequence": "GGACUAUUCUACCAAGUACTT against Txnl4a", "z-score": "inactive: 0.162"}
{"sequence": "CCCUCUGAACUAUAUGACUTT against Olfr700", "z-score": "inactive: -1.09"}
{"sequence": "GGCAGAUCUAUUGACAAACTT against Nts", "z-score": "inactive: 0.939"}
{"sequence": "CCUCAUUGUACCUUGCUGATT against Surf6", "z-score": "inactive: -0.954"}
{"sequence": "ACUUCUACUGAAGUGAAUUTT against Krtap19-1", "z-score": "inactive: -1.1"}
{"sequence": "GGUUUGUUUGUUUUUUGGUTT against Ajuba", "z-score": "active: 2.96"}
{"sequence": "GGGUAGCUAAGAAAAAGAUTT against Rbm48", "z-score": "inactive: 0.864"}
{"sequence": "GAAUCUUACCCUCUUUCUCTT against Olfr541", "z-score": "inactive: 1.18"}
{"sequence": "GCAUAUCGCUUUUGUGAGCTT against E2f6", "z-score": "active: 2.31"}
{"sequence": "CCUGGUUUACAUGUACGGGTT against Tap2", "z-score": "inactive: 0.494"}
{"sequence": "CCAACCCUCCAUCAAAGAATT against Rnaseh2b", "z-score": "inactive: 1.91"}
{"sequence": "GGCGAGAUCCUUCAAGCCUTT against Wdr6", "z-score": "inactive: 1.45"}
{"sequence": "GGACUCUGACAAUUUUAUCTT against Dcaf8l", "z-score": "inactive: -0.0166"}
{"sequence": "CCCACCACAGUAAAGGAACTT against Rwdd3", "z-score": "inactive: 1.29"}
{"sequence": "CCACAGUCGCUUUCUUUUATT against Fam228b", "z-score": "inactive: -1.35"}
{"sequence": "CCGUGAUCUUAAACCCUCUTT against Mapk7", "z-score": "inactive: -0.988"}
{"sequence": "GGCAGCAGCUACUCCUAUATT against Krt6a", "z-score": "inactive: -1.82"}
{"sequence": "GGAGUAGCUCUUCUGGAUCTT against Kank3", "z-score": "inactive: 1.61"}
{"sequence": "CCUGAAAGCUAAUAUGAAATT against Defb44-ps", "z-score": "inactive: 0.0593"}
{"sequence": "CGCACCUGUAACUUAUCAGTT against Rac1", "z-score": "inactive: 0.099"}
{"sequence": "GGAAGAAGAUAAAGAGCGGTT against Nrgn", "z-score": "inactive: -0.708"}
{"sequence": "GGAGAAGAACGAGAAACGUTT against Nyap2", "z-score": "inactive: 0.904"}
{"sequence": "GUACGUCAAGAGCCUGCGUTT against Fam110a", "z-score": "active: -2.65"}
{"sequence": "GGUUGACUCUACAAAAUACTT against Muc5b", "z-score": "inactive: -0.656"}
{"sequence": "GGGUGGACUAGGAGUGGAUTT against Cdhr4", "z-score": "inactive: 0.316"}
{"sequence": "GCGAUGUGAGCAAAUGCCUTT against Twsg1", "z-score": "inactive: 0.656"}
{"sequence": "CCCUUAGAGCUCUUAAAGATT against Slc25a51", "z-score": "inactive: -0.549"}
{"sequence": "GGCCAAGGAUCCAUCUGUATT against Magee1", "z-score": "inactive: 0.11"}
{"sequence": "GACUGCUGUUUAGGAAUCGTT against Znhit3", "z-score": "inactive: 0.787"}
{"sequence": "GGAACUGAUGAGAACACUATT against Gbp2b", "z-score": "inactive: 0.892"}
{"sequence": "GGAGCAGAUGGUUUUCGAGTT against Copz2", "z-score": "inactive: -0.154"}
{"sequence": "CCUGAAAGAUAACAAGUGGTT against Rnls", "z-score": "inactive: 0.0112"}
{"sequence": "GGGUUUUCUUUCUUUCUCUTT against Otub1", "z-score": "inactive: 0.0369"}
{"sequence": "GCCUUUGAGUUUUUCAUGUTT against Olfr314", "z-score": "inactive: 0.98"}
{"sequence": "GGCCGUUUGUGGUCUACUGTT against Trmt6", "z-score": "inactive: 0.858"}
{"sequence": "CCUAGGCACAGCUUUGUAUTT against Apof", "z-score": "inactive: -0.595"}
{"sequence": "GGCAAUUCAAACAAUGCAGTT against Orm1", "z-score": "inactive: -1.41"}
{"sequence": "GGUACGGUAUGGAGAUCGGTT against Atpaf2", "z-score": "inactive: 0.593"}
{"sequence": "GGAUCACAGAAGGUCCCUATT against Nox4", "z-score": "inactive: -1.91"}
{"sequence": "CCCUACAAGAAUUUUGAGATT against Fam166a", "z-score": "inactive: -1.42"}
{"sequence": "GGUUCCUUACGAUGUGUCATT against Nsg1", "z-score": "inactive: -0.68"}
{"sequence": "CCAAAAUUCGAACAAGUGATT against Mat2b", "z-score": "inactive: 0.199"}
{"sequence": "GGCCCAAUGUCACUCACUATT against Sirt3", "z-score": "inactive: -0.498"}
{"sequence": "CCUUUCUAGGUGACUACUUTT against Pemt", "z-score": "inactive: 1.81"}
{"sequence": "GGAAUGAAAAGGUAUGUGATT against Wipi1", "z-score": "inactive: -0.914"}
{"sequence": "GCAGCUAAGCAACUUCAAUTT against Cox20", "z-score": "inactive: 0.659"}
{"sequence": "GCCAAAGGACAGUUGAAGUTT against Mogs", "z-score": "inactive: 0.795"}
{"sequence": "GAUAUCUUUAGCAAUGACATT against Olfr159", "z-score": "inactive: 0.538"}
{"sequence": "GCUGUAUCGGGUUAAUGACTT against Cpne7", "z-score": "inactive: -0.55"}
{"sequence": "GCUCCUCGUCUCAUGAUAATT against Smc4", "z-score": "inactive: 0.214"}
{"sequence": "GGUUCUGGCUGGAAUCUACTT against Gnl1", "z-score": "inactive: -0.987"}
{"sequence": "GGGACCUGAUUGUUGUUUATT against Bcap31", "z-score": "inactive: -0.787"}
{"sequence": "GGUGAUGCUUCAUAAAAAUTT against Utp6", "z-score": "inactive: -1.69"}
{"sequence": "GGUACCAGAGGAUUCUGAUTT against Pcdhga8", "z-score": "inactive: 0.153"}
{"sequence": "GGCAUGUGUGCCUAAAACCTT against Sprr4", "z-score": "inactive: 0.204"}
{"sequence": "GGUAGAGCAGAAUUGAAAATT against Bmx", "z-score": "inactive: 1.36"}
{"sequence": "GGGACUUCAUCCUCAUUUCTT against Smcr8", "z-score": "inactive: -1.43"}
{"sequence": "GCUGUCUCUACGUUGGAGATT against Adamts2", "z-score": "inactive: 0.145"}
{"sequence": "CCUGCGUCUCCAGUAGUUUTT against Reps1", "z-score": "inactive: 0.932"}
{"sequence": "GGAACAACGGAAAAGCGAGTT against Ankrd1", "z-score": "inactive: 1.25"}
{"sequence": "GGGAAUUUGCUCCUGAAAGTT against Pcdhb6", "z-score": "inactive: -0.936"}
{"sequence": "UGUAUCUUUCUGUAGUUCUTT against Taar7e", "z-score": "inactive: 0.195"}
{"sequence": "GCAAAGGGUGAUUCUUACCTT against Pifo", "z-score": "inactive: -0.431"}
{"sequence": "GGACAAGCAGUGGCUAUUUTT against Arhgef19", "z-score": "inactive: -0.042"}
{"sequence": "GGAAAGCACAGACAACAUATT against Rfxap", "z-score": "inactive: 0.139"}
{"sequence": "GGAAUCAUCAGGUUCAUCATT against Fpr1", "z-score": "inactive: 0.661"}
{"sequence": "GGAGUCCUCAAUACUUUCUTT against Iffo2", "z-score": "inactive: -0.102"}
